Measured values published in US20220347146A1, “CANCER TREATMENT” (AXELIA ONCOLOGY PTY LTD, priority 2019, published 2022).
At least one peptide structure holds a part that was inferred or is arguable (an end, a ring closure or a residue).

How the values were obtained:
MC38 = MC38 large tumour model, repeated dosing i.t. or i.p.; type: in vivo, mouse
[1] = test system: MC38 colon carcinoma cells; assay: MC38 subcutaneous tumour model, intratumoral treatment; type: in vivo, mouse
[2] = test system: 4T1.2 breast cancer cells; assay: 4T1.2 breast cancer metastasis model (primary tumour resected); type: in vivo
EMT6.5 cells = assay: EMT6.5 orthotopic mammary tumour model, i.v. therapy; type: in vivo, mouse
Method: Balb/c mice (n=12) were implanted orthotopically with 100,000 EMT6.5 cells into the 4th inguinal mammary gland and established tumours monitored by calliper measurement. When tumours were ˜200 mm^3 the mice were randomized to either one of two therapeutic arms (n=6 per arm); 1) compound A108 (10 μg, per mouse), or 2) Vehicle (saline) control. Therapy was administered intravenously to tumour bearing mice in three doses, three days apart. All mice completed therapy and were culled 21 days after tumour implant. The primary tumours, lungs and spleens were recovered and weighed. Lungs were analysed by real time quantitative PCR (RTQ-PCR) for evaluation of metastatic burden. Body weight was measured throughout the experiment.

WEHI164 tumour cell-line = assay: WEHI164 tumour model, single dose i.v. or i.p.; type: in vivo, mouse; conditions: for WEHI164 tumour growth: administered once

## CCCCCCCCCCCCCCCC(=O)OC[C@H](CSC[C@H](N)C(=O)N[C@@H](CO)C(=O)NCCOCCOCCOCCOCCOCCOCCOCCOCCOCCOCCOCCOCCOCCOCCOCCOCCOCCOCCOCCOCCOCCOCCOCCOCCOCCOCCOCCOCCC(=O)NCC(N)=O)OC(=O)CCCCCCCCCCCCCCC [A108]
MC38; MC38 large tumour model
  effect on tumour growth compared with commercially available anti-PD1 antibodies: at least as comparable as the effect of commercially available anti-PD1 antibodies
MC38; MC38 large tumour model, over 12 days
  effect on tumour growth compared with Pam3CysSK4: superior to the effect of Pam3CysSK4
MC38; i.p., 10 μg every 2 days for 13 days
  tumour growth during the treatment phase, large MC38 tumours: slows tumour growth
MC38; i.t., 25 μg every 2 days for 13 days
  tumour growth during the treatment phase, large MC38 tumours: slows tumour growth
[1]; three intra-tumoral injections of 25 μg
  overall survival of MC38-bearing mice: shows improvement to the overall survival
[1]; three intra-tumoral injections of 25 μg in 100 μl saline
  MC38 tumour growth: inhibits MC38 tumour growth
[2]; repetitive intranasal administration, 2.5 ng and 0.25 ng
  dose dependence of reduction of lung metastasis: reduces lung metastasis in a dose dependent manner
[2]; three intranasal administrations of 0.25 ng in 50 μl saline, experiment 2
  number of 4T1.2 breast cancer metastases in the lung: significantly reduced the number of 4T1.2 breast cancer metastases in the lung
[2]; three intranasal administrations of 2.5 ng in 50 μl saline, experiment 1
  number of 4T1.2 breast cancer metastases in the lung: significantly reduced the number of 4T1.2 breast cancer metastases in the lung
EMT6.5 cells; 10 μg i.v., three doses, 21 days after implant
  primary tumour weight at endpoint: statistically significant reduction in tumour weight
EMT6.5 cells; 10 μg i.v., three doses, monotherapy
  spontaneous lung metastasis (lung metastatic burden by RTQ-PCR): statistically significant reduction in spontaneous lung metastasis
EMT6.5 cells; 10 μg per mouse i.v., three doses three days apart, vs vehicle
  growth of EMT6.5 tumours in vivo: significantly slowed the growth of EMT6.5 tumours
EMT6.5 cells; A108 compared with anti PD-1 antibody
  effect on tumour growth / tumour volume (FIG. 8E): significantly better than the administration of an anti PD-1 antibody
EMT6.5 cells; independent study
  survival of mice bearing EMT6.5 tumours: significantly prolong survival
WEHI164 tumour cell-line; i.p.
  WEHI164 tumour growth: able to inhibit tumour growth
WEHI164 tumour cell-line; i.v.
  WEHI164 tumour growth: able to inhibit tumour growth
WEHI164 tumour cell-line; single dose
  rate of survival, i.p. compared with i.v. route: better rate of survival
  time after start of treatment at which tumours had responded: ≤ 48 h
WEHI164 tumour cell-line; single dose, data not shown
  time post treatment to discolouration (blackening) of the tumour marking regression: ≤ 24 h
